The other results are listed elsewhere or left out. The main result of the screen is listed elsewhere. These columns were measured beside it and carry no call. Most of these compounds were active or inconclusive in the main read-out, so they are no random draw. The note in brackets gives the kind of curve behind each potency; many fits are weak.

A short description of the assay: qHTS Assay for Modulators of Lamin A Splicing. The conditions noted are these: HeLa LMNA splicing GFP/RFP minigene ratio, 48 h. The method in brief:
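Read-out is the ratio of GFP to DsRed2 object intensity, acquired by 488 nm laser-scanning cytometry on HeLa lamin A-EGFP minigene reporter cells. Compound incubation 48 hrs at 37 °C in Opti-MEM with 2% FBS; DMSO 0.5% final.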

The mark [1] stands for this setting: measured here: RFP viability control channel.
Where [2] appears, read: measured here: GFP splicing reporter channel.

For the molecule `COc1ccc(CNC(=O)CCc2c(C)nn(-c3ccc(N4CCOCC4)nn3)c2C)cc1`, under setting [1], the concentration at half-maximal activity (AC50) was 0.02 µM [falling, full curve, poor fit].
On the same count and under the same terms, the figure for `CCOC(=O)c1ccc(CN(Cc2ccc(F)cc2)S(=O)(=O)c2cc(C(=O)Nc3ccccc3CC)ccc2F)cc1` is 35.5 µM [rising, single point].
For `FC(F)(F)c1ccccc1-c1nc(-n2ccnc2)c2ccccc2n1`, the AC50 is 15.8 µM [falling, partial curve] under setting [2] and 15.8 µM [falling, single point] under setting [1].
For the molecule `Cc1ccc2ccc3cc(C(=O)Nc4ccc(C)c(F)c4)nc3c2[nH]1`, the AC50 is 35.5 µM [falling, single point] under setting [2] and 35.5 µM [falling, single point] under setting [1].
For `CC1=C([N+](=O)[O-])C(c2cccc(Br)c2)C2=C(N1)c1ccccc1C2=O` (configuration not stated), the AC50 runs as follows: under setting [2], 20 µM [falling, single point]; under setting [1], 2 µM [rising, partial curve].
Regarding `COc1ccc(C(=O)N2CCc3cc(OC)c(OC)cc3C2c2cccc([N+](=O)[O-])c2)cc1` (configuration not stated), the AC50 under setting [1] was 12.6 µM [rising, partial curve].
For the molecule `COC(=O)CCCNC(=O)c1ccc(OC2CCN(CCc3ccccc3)CC2)cc1`, the AC50 under setting [2] was 0.00891 µM [falling, full curve, poor fit] and the AC50 under setting [1] is 0.112 µM [falling, partial curve, poor fit].
With `O=C(/C=C/c1ccco1)NC1=NCCS1`, the AC50 under setting [2] is 35.5 µM [falling, single point].
On the same count and under the same terms, the figure for `CCOC(=O)c1nnn(-c2nc(N(C)C)nc(N(C)C)n2)c1C` is 6.31 µM [rising, partial curve, poor fit].
Same read-out and setting: the figure for `C=CCNC(=O)CN(c1cc(Cl)ccc1OC)S(=O)(=O)c1ccc(C)c([N+](=O)[O-])c1` is 0.126 µM [rising, full curve, poor fit].
`CCCCCCC(=O)Cc1cc(OC)c(OC)cc1C=C(C(=O)OCC)C(=O)OCC`: the AC50 under setting [1] was 8.91 µM [rising, partial curve, poor fit].
Same read-out and setting: the same measure for `CCOC(=O)N1CCc2c(sc(NC(=O)c3ccc(Cl)s3)c2C(N)=O)C1`: 12.6 µM [rising, partial curve].
Same read-out and setting: the same measure for `O=C(C1CC1)N1CCc2cc(Br)cc(S(=O)(=O)NCc3ccc4c(c3)OCO4)c21`: 0.708 µM [rising, partial curve].
For the molecule `CCc1ccc(-c2cc(C(F)(F)F)n3nc(C(=O)Nc4cnn(Cc5ccc(C)cc5)c4)cc3n2)s1`, the concentration at half-maximal activity (AC50) under setting [2] was 25.1 µM [falling, single point] and the half-maximal activity concentration (AC50) under setting [1] is 11.2 µM [falling, partial curve].
Regarding `CCOc1ccc(-n2c(SCC(=O)c3ccccc3)nc3c([nH]c4ccccc43)c2=O)cc1`, the half-maximal activity concentration (AC50) under setting [1] was 1.26 µM [falling, full curve, poor fit].
For `CS(=O)(=O)N1CCN(c2ccccc2NC(=O)c2ccc([N+](=O)[O-])o2)CC1`, the AC50 is, setting by setting: under setting [2], 7.94 µM [falling, partial curve]; under setting [1], 14.1 µM [falling, partial curve].
For `C#CC[N+](C)(C)CC#Cc1ccc(Cl)cc1`, the AC50 under setting [2] is 14.1 µM [falling, single point] and the AC50 under setting [1] was 14.1 µM [falling, single point].
As for `CC(c1nnc(SCC(=O)Nc2cccnc2Cl)n1-c1ccccc1)N(C)C` (configuration not stated), under setting [1], the AC50 is 14.1 µM [falling, partial curve, poor fit].
Take `Cc1ccc(C2=NN=C(NC(=O)C(F)(F)F)SC2)cc1`: the AC50 under setting [2] is 2 µM [falling, single point].
With `CN(C)S(=O)(=O)N1CCN(CC(O)COc2ccc(C(=O)c3ccccc3)cc2)CC1` (configuration not stated), the AC50 under setting [1] was 31.6 µM [rising, single point].
As to `Cc1ccc(C(c2nnnn2C2CCCC2)N2c3ccccc3CC2C)cc1` (configuration not stated), the AC50 under setting [1] was 14.1 µM [rising, partial curve].
Still for that read-out and setting: the figure for `COc1cc(/C=C2/C(=O)ON=C2c2ccccc2)ccc1O` is 15.8 µM [rising, partial curve].
Take `CCn1c(=O)n(CC2CCC(C(=O)NC(C)C)CC2)c(=O)c2sccc21` (configuration not stated): the concentration at half-maximal activity (AC50) under setting [2] was 0.01 µM [falling, full curve].
As for `O=c1cc(-c2ccccc2)[nH]n1-c1nc2ccccc2s1`, the concentration at half-maximal activity (AC50) under setting [1] was 31.6 µM [rising, single point].
Still for that read-out and setting: the figure for `O=C(CN1C(=O)NC2(CCc3ccccc3C2)C1=O)Nc1ccc(F)cc1` (configuration not stated) is 22.4 µM [rising, single point]; for `C/C(CCC(C)C)=N\NC(=O)COc1ccccc1-c1ccccc1` it is 8.91 µM [rising, partial curve].
For `Cc1ccccc1-c1cc(C(=O)Nc2sc(C(=O)OC(C)C)c(C)c2C#N)c2ccccc2n1`, the AC50 is, setting by setting: under setting [2], 3.16 µM [rising, single point]; under setting [1], 2.82 µM [rising, full curve].
Take `Oc1ccc2c(ccc3[nH]cnc32)c1`: the AC50 under setting [1] is 0.0141 µM [falling, full curve, poor fit].
The same measure, in the same setting: the figure for `Cc1ccc(Nc2cc(=O)oc3ccccc23)c(C)c1` is 35.5 µM [falling, single point]; for `CC1=NN(C(=O)c2ccc(Cn3ccc([N+](=O)[O-])n3)cc2)C(O)(C(F)(F)F)C1` (configuration not stated) it is 0.501 µM [falling, full curve, poor fit].
Regarding `COC(=O)c1sc2ccccc2c1S(=O)(=O)N1CCN(c2ccc(C(C)=O)cc2)CC1`, the AC50 under setting [2] is 0.0141 µM [falling, full curve, poor fit].
In the case of `Cc1cccc(N(C(=O)c2ccc(Cl)cc2)C2CS(=O)(=O)CC2OC(=O)c2ccc(Cl)cc2)c1` (configuration not stated), the concentration at half-maximal activity (AC50) is 5.62 µM [rising, full curve, poor fit] under setting [2] and 7.08 µM [rising, partial curve, poor fit] under setting [1].
In the case of `COc1cc(NC(=O)c2cccnc2)ccc1-c1cc2ccccc2oc1=O`, under setting [1], the AC50 was 0.0112 µM [falling, full curve, poor fit].
Same read-out and setting: the figure for `COc1ccc(Cl)cc1C(=O)Nn1c(-c2cccs2)nc2ccccc2c1=O` is 7.08 µM [rising, partial curve].
As to `O=C(NCC(c1cccs1)N1CCOCC1)c1ccc(Cl)s1` (configuration not stated), the concentration at half-maximal activity (AC50) under setting [2] is 20 µM [falling, partial curve, poor fit].
On the same count and under the same terms, the figure for `CC(=O)c1cc(-c2ccc(F)cc2)n(CCC(=O)NC2CCCCC2)c1C` is 1.26 µM [rising, partial curve, poor fit].
For the molecule `CC(C)(C)c1cc(NCCCn2ccnc2)n2ncc(-c3ccc(Cl)cc3)c2n1`, the half-maximal activity concentration (AC50) is 28.2 µM [falling, single point] under setting [2] and 28.2 µM [falling, single point] under setting [1].
Consider `O=C(CN1CCN(S(=O)(=O)c2ccccc2)CC1)Nc1ccc(Cl)c(Cl)c1`, for which the AC50 under setting [2] is 22.4 µM [rising, single point] and the concentration at half-maximal activity (AC50) under setting [1] was 31.6 µM [rising, single point].
Turning to `COc1cc2c(cc1OC)CN(Cc1ccc(C)s1)CC2`, the AC50 under setting [2] was 0.0224 µM [rising, full curve, poor fit].
As for `COc1ccccc1C1C(C(C)=O)=C(C)N=c2s/c(=C\c3cc(OC)c(OC)c(OC)c3)c(=O)n21` (configuration not stated), the concentration at half-maximal activity (AC50) under setting [1] was 35.5 µM [rising, single point].
Regarding `Cc1cccc(N=c2oc3cc(O)ccc3cc2C(N)=O)c1`, the AC50 runs as follows: under setting [2], 12.6 µM [rising, partial curve]; under setting [1], 22.4 µM [rising, single point].
Regarding `O=S(=O)(Nc1cccc(-c2ccc(N3CCCCC3)nn2)c1)c1ccc(F)cc1F`, under setting [1], the half-maximal activity concentration (AC50) was 35.5 µM [falling, single point].
Consider `Cc1ccc(-c2nc3cc(Cl)ccc3o2)cc1`, for which the AC50 runs as follows: under setting [2], 4.47 µM [falling, full curve]; under setting [1], 3.55 µM [falling, full curve, poor fit].
Regarding `C1=Nc2c(NCc3ccccc3)ncnc2Oc2ccccc21`, the half-maximal activity concentration (AC50) under setting [1] is 11.2 µM [rising, single point].
`COc1ccc(C2=C(C(C)=O)Sc3nnc(-c4ccccc4)n3N2C(C)=O)cc1`: the concentration at half-maximal activity (AC50) under setting [2] was 22.4 µM [falling, partial curve, poor fit].
On the same count and under the same terms, the figure for `CNC(=O)COC(=O)/C=C/c1ccco1` is 7.08 µM [falling, partial curve, poor fit].
Consider `O=C(NCC(c1cccs1)N1CCOCC1)c1ccc([N+](=O)[O-])cc1` (configuration not stated), for which the half-maximal activity concentration (AC50) under setting [1] is 25.1 µM [rising, single point].
Still for that read-out and setting: the figure for `CCCc1[nH]nc2c1C(c1cn[nH]c1-c1ccc(F)cc1)C(C#N)=C(N)O2` (configuration not stated) is 10 µM [rising, partial curve, poor fit]; for `CCCN(CCC)CCNC(=O)CCC(=O)Nc1ccc2nc(N3CCN(C)CC3)cc(C)c2c1` it is 5.62 µM [falling, single point].
Turning to `COc1cc(NC(=O)c2cc3cc4cc(OC)ccc4nc3o2)cc(OC)c1`, the AC50 reads like this: under setting [2], 2 µM [falling, full curve]; under setting [1], 1.41 µM [falling, partial curve].
Consider `CCCNC(=S)N1CCN(C(c2ccccc2)c2ccccc2)CC1`, for which the AC50 was 8.91 µM [rising, single point] under setting [2] and 22.4 µM [rising, single point] under setting [1].
On to `CC(C)(C)C(=O)NC(Nc1cccc2cccnc12)C(Cl)(Cl)Cl` (configuration not stated), for which, under setting [1], the AC50 was 20 µM [falling, partial curve].
For `COC(=O)c1cc(C#N)c(OC(C)C)nc1C`, the AC50 under setting [1] is 0.447 µM [falling, full curve, poor fit].
As for `CC1=Nc2cc(C(=O)NCc3ccco3)ccc2Sc2ccc(C)cc21`, the AC50 under setting [1] is 5.01 µM [rising, single point].
`Cc1ccsc1/C=C1/C(=O)NN(c2ccccc2)C1=O`: the concentration at half-maximal activity (AC50) is 11.2 µM [rising, partial curve, poor fit] under setting [2] and 31.6 µM [rising, single point] under setting [1].
In the case of `COc1cc(/C=C2\CC/C(=C\c3cc(OC)c(OC)c(OC)c3)C2=O)cc(OC)c1OC`, the AC50 under setting [1] was 0.141 µM [rising, full curve, poor fit].

Source of the values: PubChem BioAssay AID1487 (National Center for Advancing Translational Sciences (NCATS), 2009).
